Literature values as cited in patent publication US10844064B2, “sGC stimulators” (Cyclerion Therapeutics, Inc., priority 2014, dated 2020).
At least one compound was matched to its structure with a doubt left.

Test system: patients with BMD
Settings: single oral dose of 20 mg, double-blind randomized placebo-controlled crossover trial; cited from earlier work

## CN1CC(=O)N2[C@H](c3ccc4c(c3)OCO4)c3[nH]c4ccccc4c3C[C@@H]2C1=O [tadalafil]
  normal blood flow regulation: restored in eight of nine patients
